Results are given in words; binding and its absence hold for the method and conditions named. In cells and extracts the contact can be indirect. A yes stands for co-enrichment or nearness to the bait. Other partners may have been found. Sequences can lack the tags named with a protein.
Biological target: 3×FLAG-NLS-RBM15-SPOC (human) (UniProt Q96T37)
Experiment: affinity purification with mass spectrometry; anti-FLAG M2 beads; 3×FLAG-NLS-SPOC domains expressed in HEK293T; lysis in 50 mM Tris-Cl pH 8, 150 mM NaCl, 0.1% Triton with benzonase; empty vector as control; three replicates

binding: binds
B1: HTATSF1 (TAT-SF1) (protein, UniProt O43719 1-755)
chain: MSGTNLDGNDEFDEQLRMQELYGDGKDGDTQTDAGGEPDSLGQQPTDTPYEWDLDKKAWFPKITEDFIATYQANYGFSNDGASSSTANVEDVHARTAEEPPQEKAPEPTDARKKGEKRKAESGWFHVEEDRNTNVYVSGLPPDITVDEFIQLMSKFGIIMRDPQTEEFKVKLYKDNQGNLKGDGLCCYLKRESVELALKLLDEDEIRGYKLHVEVAKFQLKGEYDASKKKKKCKDYKKKLSMQQKQLDWRPERRAGPSRMRHERVVIIKNMFHPMDFEDDPLVLNEIREDLRVECSKFGQIRKLLLFDRHPDGVASVSFRDPEEADYCIQTLDGRWFGGRQITAQAWDGTTDYQVEETSREREERLRGWEAFLNAPEANRGLRRSDSVSASERAGPSRARHFSEHPSTSKMNAQETATGMAFEEPIDEKKFEKTEDGGEFEEGASENNAKESSPEKEAEEGCPEKESEEGCPKRGFEGSCSQKESEEGNPVRGSEEDSPKKESKKKTLKNDCEENGLAKESEDDLNKESEEEVGPTKESEEDDSEKESDEDCSEKQSEDGSEREFEENGLEKDLDEEGSEKELHENVLDKELEENDSENSEFEDDGSEKVLDEEGSEREFDEDSDEKEEEEDTYEKVFDDESDEKEDEEYADEKGLEAADKKAEEGDADEKLFEESDDKEDEDADGKEVEDADEKLFEDDDSNEKLFDEEEDSSEKLFDDSDERGTLGGFGSVEEGPLSTGSSFILSSDDDDDDI
